Consider 19 compounds from the supplement of paper PMC7024190.

Structures can show the parent of a compound that is named as a salt. This is one part of the list. This data set is noisy: repeats of one test often differ as much as different tests do.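 A first-round screen of about ten thousand compounds sought those raising reporter output, using human embryonic kidney cells briefly transfected with a plasmid carrying a Renilla luciferase gene driven by the HSV-TK promoter.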

The experiment has as its system HEK 293FT. As to the kind of experiment: log relative Renilla luciferase luminescence (reporter expression vs reference, reference not stated) (log (base not stated)); higher = higher recombinant reporter expression. Particulars: 10 µM; time after transfection 48 h.
As for `CC(C)Cc1ccc([C@H](C)C(=O)O)cc1` [S-(+)-ibuprofen], the log worked out at 0.107.
The figure for `CS(=O)(=O)c1ccc([C@@H](O)[C@@H](CO)NC(=O)C(Cl)Cl)cc1` [Thiamphenicol] is 0.104; for `O=c1[nH]cc(F)c(=O)[nH]1` [5-fluorouracil] it is 0.0695; for `C[C@]12C=CC(=O)C=C1CC[C@@H]1[C@@H]2[C@@H](O)C[C@@]2(C)[C@H]1CC[C@]2(O)C(=O)CO` [Prednisolone] it is 0.0384.
For `O=C1C(CC[S+]([O-])c2ccccc2)C(=O)N(c2ccccc2)N1c1ccccc1` (centres undefined) [Sulfinpyrazone] the value was 0.102; for `NS(=O)(=O)c1cc2c(cc1Cl)N=C(CSCc1ccccc1)NS2(=O)=O` [Benzthiazide], -0.236.
The figure for `CC(=O)O[C@]1(C(C)=O)CC[C@H]2[C@@H]3C=C(C)C4=CC(=O)CC[C@@H]4[C@H]3CC[C@@]21C` [Nomegestrol acetate] is 0.127; for `CO[C@@]1(NC(=O)C(C(=O)O)c2ccc(O)cc2)C(=O)N2C(C(=O)O)=C(CSc3nnnn3C)CO[C@@H]21` (some centres undefined) [Moxalactam disodium salt] it is -0.0476; for `C#C[C@]1(O)CC[C@H]2[C@@H]3CCC4=CC(=O)CC[C@@H]4[C@H]3CC[C@@]21C` [Norethindrone] it is 0.0503.
Regarding `C#C[C@]1(OC(C)=O)CC[C@H]2[C@@H]3CCC4=C[C@@H](OC(C)=O)CC[C@@H]4[C@H]3CC[C@@]21C` [Ethynodiol diacetate], the log is -0.203.
The figure for `Nc1ccc(S(=O)(=O)Nc2ncccn2)cc1` [Sulfadiazine] is -0.0974; for `Clc1ccccc1CN1CCc2sccc2C1` [Ticlopidine hydrochloride] it is 0.0896.
The figure for `CCN(CC)CCOC(=O)C1(c2ccc([N+](=O)[O-])cc2)CCCC1` [Nitrocaramiphen hydrochloride] is -0.185; for `CN(C)CCCN1c2ccccc2CCc2ccc(Cl)cc21` [Clomipramine hydrochloride] it is 0.0484; for `CO[C@@]1(NC(=O)C2SC(=C(C(N)=O)C(=O)O)S2)C(=O)N2C(C(=O)O)=C(CSc3nnnn3C)CS[C@@H]21` (some centres undefined) [Cefotetan] it is -0.172.
`Cc1cc(C(C)(C)CC(C)(C)C)ccc1OCCOCC[N+](C)(C)Cc1ccccc1` [Methyl benzethonium chloride]: the log is -1.45.
Take `Cc1cc(NC(=O)C2=C(O)c3ccccc3S(=O)(=O)N2C)no1` [Isoxicam]: the log was 0.00284.
The figure for `COC(=O)C1=C(C)NC(C)=C(C(=O)OC)C1c1ccccc1[N+](=O)[O-]` [Nifedipine] is 0.0542; for `C#C[C@]1(O)CC[C@H]2[C@@H]3CCc4cc(OC)ccc4[C@H]3CC[C@@]21C` [Ethynylestradiol 3-methyl ether] it is -0.141.
